Our source for the survivor count and T/C values is PubChem BioAssay AID328 (DTP/NCI, 2004).

This test concerns BDF1 mice, P388 leukemia ip, median survival T/C. In words: NCI In Vivo Anticancer Drug Screen. Data for tumor model P388 Leukemia (intraperitoneal) in B6D2F1 (BDF1) mice. The following applies: T/C endpoint: median survival time, higher T/C = longer survival. Here is the method: The antitumor activity of compounds was measured in mice bearing transplantable tumors. Survival or tumor size were measured and the results are expressed as the measurement made in the treated group (T) divided by the measurement made in the vehicle treated control group (C). The tumor model used in this assay is P388 Leukemia (intraperitoneal) in B6D2F1 (BDF1) mice

The mark [1] stands for this setting: dose: 200.0 mg/kg/injection, schedule: Q01DX009 (ip), vehicle: saline with Tween-80.
The mark [2] stands for this setting: dose: 400.0 mg/kg/injection, schedule: Q01DX009 (ip), vehicle: saline with Tween-80.
[3] abbreviates: dose: 200.0 mg/kg/injection, schedule: Q01DX009 (ip), vehicle: Klucel (hydroxypropylcellulose) (HPC).
Where [4] appears, read: dose: 200.0 mg/kg/injection, schedule: Q04DX003 (ip), vehicle: saline with Tween-80.
Where [5] appears, read: dose: 400.0 mg/kg/injection, schedule: Q04DX003 (ip), vehicle: saline with Tween-80.
[6] abbreviates: dose: 200.0 mg/kg/injection, schedule: Q01DX009 (ip), vehicle: water.
Setting [7] is: dose: 150.0 mg/kg/injection, schedule: Q01DX009 (ip), vehicle: saline with Tween-80.
[8] abbreviates: dose: 200.0 mg/kg/injection, schedule: Q01DX009 (ip), vehicle: saline.
Where [9] appears, read: dose: 400.0 mg/kg/injection, schedule: Q01DX009 (ip), vehicle: saline.

Structures are written as SMILES. The list shows only some results of the screen, not a fair sample: it gathers tests that were run many times, whatever their T/C, doses with no T/C, and many T/C values between a quarter and a half above the control. Further doses and runs are listed elsewhere. T/C is the treated group as % of the vehicle group. Some entries give survivors of the animals treated and no T/C: the source holds a T/C of zero for them, seemingly a mark for toxic or unscored doses. Some survivor counts are full or nearly so, which does not show that the dose was tolerated: the source hardly ever lists a survival T/C far under the control, and the zero likely stands for such cases as well. Survivors were counted at the toxicity check, usually on the fifth day, unless a day is given; later deaths do not show. Schedules are NCI's codes, read here as Q, the interval in days (D) or hours (H), X, the number of doses. Some entries were tested several times; the values are given in rising order. For survival time, the PubChem record calls one and a half times the control and up active, and a quarter to a half above the control has no call in these data; cut-offs in other NCI protocols can differ.

As for `CC(C)n1cnc2c(=S)nc[nH]c21`, the survivor count is, setting by setting: under setting [1], 6 of 6; under setting [2], 3 of 6.

With `CSc1nc(N)nc2nc[nH]c12`, the survivor count under setting [1] is 3 of 6.

Take `COc1ccc(CCC(C)=O)cc1`: the survivor count under setting [3] is 3 of 6.

As for `CC1([CH2][Hg][Cl])Cc2ccccc2O1` (stereo not drawn), the survivor count (dose: 6.25 mg/kg/injection, schedule: Q04DX003 (ip), vehicle: saline with Tween-80) is reported as 1 of 6.

As to `O=S1(=O)C=Cc2ccccc21`, for the setting “dose: 400.0 mg/kg/injection, schedule: Q04DX003 (ip), vehicle: Klucel (hydroxypropylcellulose) (HPC)”, the survivor count is 0 of 6.

Take `C[C@H]1CCC/C=C/[C@@H]2C[C@H](O)C[C@H]2[C@H](O)/C=C/C(=O)O1`: the survivor count runs as follows: (dose: 25.0 mg/kg/injection, schedule: Q01DX010 (ip), vehicle: water) 6 of 6; (dose: 45.0 mg/kg/injection, schedule: Q01DX010 (ip), vehicle: water) 6 of 6; (dose: 50.0 mg/kg/injection, schedule: Q01DX010 (ip), vehicle: water) 6 of 6; (dose: 67.0 mg/kg/injection, schedule: Q01DX010 (ip), vehicle: water) 6 of 6; (dose: 100.0 mg/kg/injection, schedule: Q01DX010 (ip), vehicle: water) 6 of 6; (dose: 200.0 mg/kg/injection, schedule: Q01DX010 (ip), vehicle: water) 6 of 6. The survivor count (dose: 200.0 mg/kg/injection, schedule: Q04DX003 (ip), vehicle: Klucel (hydroxypropylcellulose) (HPC)) is on record as 6 of 6.

`O=c1[nH]cc(N(CCCl)CCCl)c(=O)[nH]1`: the survivor count (dose: 3.0 mg/kg/injection, schedule: Q01DX010 (ip), vehicle: saline) was 6 of 6 and the survivor count (dose: 6.0 mg/kg/injection, schedule: Q01DX010 (ip), vehicle: saline) is reported as 5 of 6.

`CCCCCCCCCCCCCCC(F)C(=O)OCC1OC(CO)(OC2OC(CO)C(O)C(O)C2O)C(O)C1O` (stereo not drawn): the survivor count is, setting by setting: (dose: 100.0 mg/kg/injection, schedule: Q01DX009 (ip), vehicle: saline with Tween-80) 4 of 6; under setting [4], 3 of 6.

Take `O=c1[nH]c(-c2ccccc2)c(-c2ccccc2)[nH]1`: the survivor count reads like this: (dose: 100.0 mg/kg/injection, schedule: Q01DX009 (ip), vehicle: Klucel (hydroxypropylcellulose) (HPC)) 6 of 6; under setting [3], 6 of 6; (dose: 400.0 mg/kg/injection, schedule: Q01DX009 (ip), vehicle: Klucel (hydroxypropylcellulose) (HPC)) 2 of 6.

As for `CC(=O)OCC(=O)[C@@]1(O)CC[C@H]2[C@@H]3CCC4=CC(=O)CC[C@]4(C)[C@H]3C(=O)C[C@@]21C`, the survivor count under setting [5] is 6 of 6.

As for `CC1(C)N=C(N)N=C(N)N1c1cccc(Br)c1`, the T/C is, setting by setting: (dose: 6.2 mg/kg/injection, schedule: Q04DX003 (ip), vehicle: saline) 138 % of control; (dose: 9.2 mg/kg/injection, schedule: Q04DX003 (ip), vehicle: saline) 144 % of control; (dose: 14.0 mg/kg/injection, schedule: Q04DX003 (ip), vehicle: saline) 127 % of control; (dose: 21.0 mg/kg/injection, schedule: Q04DX003 (ip), vehicle: saline) 140 % of control. Also, the survivor count is recorded as 3 of 6 (dose: 100.0 mg/kg/injection, schedule: Q04DX003 (ip), vehicle: saline) and 0 of 6 (dose: 200.0 mg/kg/injection, schedule: Q04DX003 (ip), vehicle: saline).

Take `Nc1cc(OCc2ccccc2)cc(OCc2ccccc2)c1`: the survivor count runs as follows: under setting [6], 0 of 6 and 3 of 6; (dose: 400.0 mg/kg/injection, schedule: Q04DX003 (ip), vehicle: water) 2 of 6 and 4 of 6.

As for `FC(F)(F)c1cc(CN(CCCl)CCCl)cc(C(F)(F)F)c1`, the T/C is 149 % of control (dose: 25.0 mg/kg/injection, schedule: Q01DX009 (ip), vehicle: other); 129 and 149 % of control (dose: 50.0 mg/kg/injection, schedule: Q01DX009 (ip), vehicle: Klucel (hydroxypropylcellulose) (HPC)). In addition, the survivor count (dose: 100.0 mg/kg/injection, schedule: Q01DX009 (ip), vehicle: other) is listed as 5 of 6.

As for `O=C(Nc1cccc2ccccc12)N1c2ccccc2SC12CCCC2`, the survivor count (dose: 50.0 mg/kg/injection, schedule: Q01DX009 (ip), vehicle: saline with Tween-80) is reported as 6 of 6 and the survivor count under setting [1] is given as 6 of 6.

For the molecule `CC(=O)CC(C)=O.CC(=O)CC(C)=O.Cn1ccnc1.Cn1ccnc1.[Ni]`, the survivor count is 1 of 6 (dose: 100.0 mg/kg/injection, schedule: Q04DX002 (ip), vehicle: saline with Tween-80); 0 of 6 (dose: 200.0 mg/kg/injection, schedule: Q04DX002 (ip), vehicle: saline with Tween-80); 0 of 6 (dose: 400.0 mg/kg/injection, schedule: Q04DX002 (ip), vehicle: saline with Tween-80).

As for `CNC(=S)N(C)C`, the T/C (dose: 400.0 mg/kg/injection, schedule: Q01DX001 (ip), vehicle: saline) was 130 % of control.

For `CC#CCOCC1CO1` (stereo not drawn), the T/C reads like this: (dose: 44.0 mg/kg/injection, schedule: Q01DX009 (ip), vehicle: saline with Tween-80) 130 % of control; (dose: 100.0 mg/kg/injection, schedule: Q01DX009 (ip), vehicle: saline) 129 % of control. In addition, the survivor count by setting is: under setting [7], 0 of 6; under setting [8], 3 of 6; under setting [9], 0 of 6; (dose: 400.0 mg/kg/injection, schedule: Q04DX003 (ip), vehicle: saline) 6 of 6.

As to `O=C1OP2(c3ccccc3)(OC(=O)c3ccccc32)c2ccccc21`, where the note is “dose: 25.0 mg/kg/injection, schedule: Q01DX009 (ip), vehicle: saline with Tween-80”, the T/C is 140 % of control.

Turning to `O=c1[nH]c2cc(Cl)ccc2c(CCl)c1Cl`, the survivor count is, setting by setting: under setting [7], 6 of 6; (dose: 225.0 mg/kg/injection, schedule: Q01DX009 (ip), vehicle: saline with Tween-80) 4 of 6; (dose: 335.0 mg/kg/injection, schedule: Q01DX009 (ip), vehicle: saline with Tween-80) 0 of 6.

As to `CCCCCCCCCSC(=S)N(C)NC(=O)c1ccccn1`, under setting [1], the survivor count is listed as 0 of 6.

For the molecule `C#CC1(OCC(O)CO)CCCCC1` (stereo not drawn), the T/C under setting [6] is 138 % of control and the T/C (dose: 300.0 mg/kg/injection, schedule: Q01DX009 (ip), vehicle: water) was 128 % of control.

Consider `ClCCN(CCCl)c1ccc(/C=C\c2ccnc3ccccc23)cc1`, for which the survivor count under setting [2] was 5 of 6.

With `O=C(CC(=O)C(F)(F)C(F)(F)C(F)(F)F)c1csc2ccccc12`, the survivor count runs as follows: (dose: 25.0 mg/kg/injection, schedule: Q01DX009 (ip), vehicle: Klucel (hydroxypropylcellulose) (HPC)) 6 of 6; under setting [8], 5 of 6; under setting [9], 2 of 6.

In the case of `COc1cc2c3c4c1OCc1c5c(cc(c1-4)CC3[N+](C)(C)CC2)OCO5` (stereo not drawn), the survivor count (dose: 25.0 mg/kg/injection, schedule: Q01DX001 (ip), vehicle: saline) was 0 of 6.

For `O=C(O)C1CC2C=CC1C2` (stereo not drawn), the survivor count under setting [2] is reported as 1 of 6.

In the case of `CCO/C=C1\SC(=S)N(c2cccc(OC)c2)C1=O`, the T/C is 140 % of control (dose: 178.0 mg/kg/injection, schedule: Q01DX009 (ip), vehicle: saline with Tween-80); 138 % of control under setting [4]; 129 % of control (dose: 266.0 mg/kg/injection, schedule: Q01DX009 (ip), vehicle: saline with Tween-80); 139 % of control under setting [2]; 144 % of control under setting [5]; 131 % of control (dose: 600.0 mg/kg/injection, schedule: Q01DX009 (ip), vehicle: saline with Tween-80).
